Measurements from paper doi:10.1101/2025.03.24.644918.

Sequences of proteins named here, by UniProt entry; tags and fusion partners are left off. A change or cut given only in a name is not applied to a line headed by its entry.
UniProt O09037: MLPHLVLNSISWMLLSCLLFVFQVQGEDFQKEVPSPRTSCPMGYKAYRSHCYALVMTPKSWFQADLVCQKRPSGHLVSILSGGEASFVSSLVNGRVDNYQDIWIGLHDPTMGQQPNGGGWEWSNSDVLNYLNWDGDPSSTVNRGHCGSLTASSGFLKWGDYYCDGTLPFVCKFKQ
UniProt O09049: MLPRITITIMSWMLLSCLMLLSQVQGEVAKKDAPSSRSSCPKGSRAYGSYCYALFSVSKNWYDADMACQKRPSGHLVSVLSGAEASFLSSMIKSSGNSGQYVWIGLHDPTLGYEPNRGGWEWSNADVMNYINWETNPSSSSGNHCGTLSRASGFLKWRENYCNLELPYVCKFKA
UniProt P35230: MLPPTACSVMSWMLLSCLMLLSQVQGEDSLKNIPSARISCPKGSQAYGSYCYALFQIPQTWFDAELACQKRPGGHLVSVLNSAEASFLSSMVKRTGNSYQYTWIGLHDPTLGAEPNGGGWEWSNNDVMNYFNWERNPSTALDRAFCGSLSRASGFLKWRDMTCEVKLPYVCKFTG
UniProt Q9QUS9: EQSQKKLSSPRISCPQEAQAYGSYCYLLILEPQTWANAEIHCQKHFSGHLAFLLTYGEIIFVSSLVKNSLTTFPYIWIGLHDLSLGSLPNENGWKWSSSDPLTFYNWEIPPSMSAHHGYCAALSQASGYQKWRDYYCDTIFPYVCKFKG

What was measured:
[1] = target: T1, C-terminally V5-tagged CCPG1 (UniProt Q640L3); experiment: co-IP
T1 sequence: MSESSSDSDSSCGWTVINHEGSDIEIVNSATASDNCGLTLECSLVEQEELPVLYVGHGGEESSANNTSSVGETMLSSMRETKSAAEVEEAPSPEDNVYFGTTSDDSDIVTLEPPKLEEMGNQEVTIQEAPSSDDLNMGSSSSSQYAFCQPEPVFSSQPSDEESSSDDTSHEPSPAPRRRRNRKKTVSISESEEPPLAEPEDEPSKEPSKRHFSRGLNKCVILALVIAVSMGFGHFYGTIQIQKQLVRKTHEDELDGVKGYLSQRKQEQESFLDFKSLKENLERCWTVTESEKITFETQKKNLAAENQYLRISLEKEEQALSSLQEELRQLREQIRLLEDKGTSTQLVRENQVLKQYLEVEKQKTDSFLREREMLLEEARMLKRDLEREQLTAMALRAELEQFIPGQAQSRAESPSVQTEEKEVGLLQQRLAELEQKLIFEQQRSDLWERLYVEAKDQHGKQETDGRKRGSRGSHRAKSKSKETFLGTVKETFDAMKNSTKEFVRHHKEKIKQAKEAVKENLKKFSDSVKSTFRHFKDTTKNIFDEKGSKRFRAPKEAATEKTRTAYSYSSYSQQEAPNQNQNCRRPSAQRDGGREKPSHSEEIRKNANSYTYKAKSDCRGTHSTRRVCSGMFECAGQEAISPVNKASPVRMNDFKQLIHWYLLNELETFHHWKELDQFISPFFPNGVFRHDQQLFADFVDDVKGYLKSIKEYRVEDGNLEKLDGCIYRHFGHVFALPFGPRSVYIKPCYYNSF

[2] = target: T2, N-terminally myc-tagged full-length murine CCPG1 (mouse) (UniProt Q640L3); experiment: co-IP
T2 sequence: T1 sequence

Row | Substance | binding [1] | binding [2]
1 | GFP-fused murine REG3A (in PDAC cells) (from UniProt O09037) | binds | –
2 | GFP-fused murine REG3G (from UniProt O09049) | binds | –
3 | GFP-fused murine REG3B (from UniProt P35230) | binds | –
4 | GFP-REG3A (stably expressed in HEK293FT) (from UniProt O09037) | – | binds
5 | GFP-fused murine REG3D (from UniProt Q9QUS9) | binds | –

Results are given in words; binding and its absence hold for the method and conditions named. Binding seen in cells or lysates may run through a third protein. Binding calls can cover weak binding; strength is not graded here. Tags and fused reporters may be left off the sequences shown.
